Screening data

Source: PubChem BioAssay AID504749 (NCATS, 2011).

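Malaria parasite (P. falciparum) lines kept in red blood cells; parasite DNA is measured by SYBR Green fluorescence after lysis, 72 h after compound addition. Each compound was titrated across a series from about 0.000037 to 29 µM. The number is the fitted AC50, the concentration giving a half-maximal change in signal; a lower value means higher potency, whether the curve shows a decrease or an increase. Calls follow the curve class and fit quality: every row here is inconclusive, covering signal-raising curves and weak, poorly fitted, partial or highest-dose-only inhibition curves.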

Values are in nM. Every entry below has the call inconclusive. Only part of the assay is shown, chiefly results filed as inconclusive. A potency from a partial, single-point or poor curve is only a rough figure. The first word of each remark tells which way the curve ran; it can be opposite to the aim of the assay.

compound	tested on / at	fitted potency (nM)	curve as filed
Cc1cc(C2CCCCC2)n(O)c(=O)c1	PC26	5103	inhibitor, single point
Cc1cc(C2CCCCC2)n(O)c(=O)c1	ATS95	3981	inhibitor, single point
Cc1cc(C2CCCCC2)n(O)c(=O)c1	CP329	5103	inhibitor, single point
Cc1cc(C2CCCCC2)n(O)c(=O)c1	P94_40	7080	inhibitor, single point
CCCCCCCCCCOc1cc2c(=O)c(C(=O)OCC)c[nH]c2cc1OCC	CP329	0.5	inhibitor
CCCCCCCCCCOc1cc2c(=O)c(C(=O)OCC)c[nH]c2cc1OCC	CP256	2.8	inhibitor, full curve, poor fit
CCCCCCCCCCOc1cc2c(=O)c(C(=O)OCC)c[nH]c2cc1OCC	CP262	0.5	inhibitor
CCCCCCCCCCOc1cc2c(=O)c(C(=O)OCC)c[nH]c2cc1OCC	CP194	1.5	inhibitor, full curve, poor fit
CCCCCCCCCCOc1cc2c(=O)c(C(=O)OCC)c[nH]c2cc1OCC	CP203	2.1	inhibitor, full curve, poor fit
CCCCCCCCCCOc1cc2c(=O)c(C(=O)OCC)c[nH]c2cc1OCC	CP211	1.3	inhibitor
CCCCCCCCCCOc1cc2c(=O)c(C(=O)OCC)c[nH]c2cc1OCC	CP269	2.4	inhibitor, full curve, poor fit
CCCCCCCCCCOc1cc2c(=O)c(C(=O)OCC)c[nH]c2cc1OCC	CP325	2.1	inhibitor, full curve, poor fit
CCCCCCCCCCOc1cc2c(=O)c(C(=O)OCC)c[nH]c2cc1OCC	CP191	3.5	inhibitor, full curve, poor fit
CCCCCCCCCCOc1cc2c(=O)c(C(=O)OCC)c[nH]c2cc1OCC	CP265	3.2	inhibitor, full curve, poor fit
CCCCCCCCCCOc1cc2c(=O)c(C(=O)OCC)c[nH]c2cc1OCC	CP252	10	inhibitor, full curve, poor fit
CCCCCCCCCCOc1cc2c(=O)c(C(=O)OCC)c[nH]c2cc1OCC	CP291	1.7	inhibitor, full curve, poor fit
CCCCCCCCCCOc1cc2c(=O)c(C(=O)OCC)c[nH]c2cc1OCC	DIV30	1.5	inhibitor, full curve, poor fit
CCCCCCCCCCOc1cc2c(=O)c(C(=O)OCC)c[nH]c2cc1OCC	CP201	535.8	activator
CCCCCCCCCCOc1cc2c(=O)c(C(=O)OCC)c[nH]c2cc1OCC	CP215	1.5	inhibitor, full curve, poor fit
CCCCCCCCCCOc1cc2c(=O)c(C(=O)OCC)c[nH]c2cc1OCC	CP266	3.4	inhibitor, full curve, poor fit
Cc1cccc(C)c1NC(=O)C1CCCCN1C (stereo unspecified)	CP297	15101	inhibitor, single point
Cc1cccc(C)c1NC(=O)C1CCCCN1C (stereo unspecified)	GB4	21331	inhibitor, partial curve, poor fit
Cc1cccc(C)c1NC(=O)C1CCCCN1C (stereo unspecified)	CP266	10690	inhibitor, single point
Cc1cccc(C)c1NC(=O)C1CCCCN1C (stereo unspecified)	W2	1346	inhibitor, full curve, poor fit
Cn1nnnc1SCC1=C(C(=O)O)N2C(=O)[C@@H](NC(=O)[C@@H](O)c3ccccc3)[C@@H]2SC1	7G8	10000	inhibitor, single point
Cn1nnnc1SCC1=C(C(=O)O)N2C(=O)[C@@H](NC(=O)[C@@H](O)c3ccccc3)[C@@H]2SC1	CP291	9074	activator, partial curve, poor fit
O=C1CN=C(c2ccccc2)c2cc(Cl)ccc2N1CC1CC1	3D7	19952	inhibitor, single point
O=C1CN=C(c2ccccc2)c2cc(Cl)ccc2N1CC1CC1	CP286	11220	inhibitor, single point
O=C1CN=C(c2ccccc2)c2cc(Cl)ccc2N1CC1CC1	CP247	11220	inhibitor, single point
O=C1CN=C(c2ccccc2)c2cc(Cl)ccc2N1CC1CC1	CP203	15101	inhibitor, partial curve, poor fit
O=C1CN=C(c2ccccc2)c2cc(Cl)ccc2N1CC1CC1	AS120	19952	inhibitor, single point
O=C1CN=C(c2ccccc2)c2cc(Cl)ccc2N1CC1CC1	DIV17	19011	inhibitor, single point
COC(C)(C)CCCC(C)C/C=C/C(C)=C/C(=O)OC(C)C (stereo unspecified)	P94_40	12589	inhibitor, single point
COC(C)(C)CCCC(C)C/C=C/C(C)=C/C(=O)OC(C)C (stereo unspecified)	PC15	17782	inhibitor, single point
COC(C)(C)CCCC(C)C/C=C/C(C)=C/C(=O)OC(C)C (stereo unspecified)	3D7	10000	inhibitor, single point
COC(C)(C)CCCC(C)C/C=C/C(C)=C/C(=O)OC(C)C (stereo unspecified)	CP250	12589	inhibitor, partial curve
COC(C)(C)CCCC(C)C/C=C/C(C)=C/C(=O)OC(C)C (stereo unspecified)	CP266	84.9	inhibitor, full curve, poor fit
COC(C)(C)CCCC(C)C/C=C/C(C)=C/C(=O)OC(C)C (stereo unspecified)	CP192	0.5	inhibitor
COC(C)(C)CCCC(C)C/C=C/C(C)=C/C(=O)OC(C)C (stereo unspecified)	CP297	3381	inhibitor, partial curve, poor fit

The last 4 entries again:

For COC(C)(C)CCCC(C)C/C=C/C(C)=C/C(=O)OC(C)C (stereo unspecified) [CP250] the result was fitted potency 12589 nM (inhibitor, partial curve).
For COC(C)(C)CCCC(C)C/C=C/C(C)=C/C(=O)OC(C)C (stereo unspecified) [CP266] the result was fitted potency 84.9 nM (inhibitor, full curve, poor fit).
For COC(C)(C)CCCC(C)C/C=C/C(C)=C/C(=O)OC(C)C (stereo unspecified) [CP192] the result was fitted potency 0.5 nM (inhibitor).
For COC(C)(C)CCCC(C)C/C=C/C(C)=C/C(=O)OC(C)C (stereo unspecified) [CP297] the result was fitted potency 3381 nM (inhibitor, partial curve, poor fit).